{
  "source": "the supplement of paper PMC8104966",
  "note": "± gives the standard deviation of the averaged measurements. This is one part of the list. This data set is noisy: repeats of one test often differ as much as different tests do.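 Fusion between ACE2-bearing and full-length-spike-bearing U2OS cells was measured by imaging as the percentage of nuclei with both cell types' fluorescent markers. An inhibitory hit is a non-toxic compound whose fusion z-score is below -3, more than three standard deviations beneath the plate's DMSO wells.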",
  "data": [
    {"system": "U2OS ACE2 x SARS-CoV-2 spike co-culture", "test": "cell-cell fusion (fraction fused) z-score vs plate DMSO control; higher = more fusion", "conditions": "30 µM; 5 h; toxicity class: non-toxic, passed QC", "values": [
      {"smiles": "CN(C)C(=O)c1cc2cnc(Nc3ccc(N4CCNCC4)cn3)nc2n1C1CCCC1", "note": "[Ribociclib]", "cell-cell fusion (z-score)": "inactive: 3.79"},
      {"smiles": "CCCc1nc(C(C)(C)O)c(C(=O)O)n1Cc1ccc(-c2ccccc2-c2nn[nH]n2)cc1", "note": "[Olmesartan]", "cell-cell fusion (z-score)": "inactive: 3.69"},
      {"smiles": "COC1=C[C@@H]2[C@@H]3Cc4ccc(OC)c(O)c4[C@]2(CCN3C)CC1=O", "cell-cell fusion (z-score)": "inactive: 3.26"},
      {"smiles": "Cn1nnc2c(C(N)=O)ncn2c1=O", "note": "[Temozolomide]", "cell-cell fusion (z-score)": "inactive: 2.11"},
      {"smiles": "CCN(Cc1cccc(S(=O)(=O)[O-])c1)c1cccc(C(=C2C=CC(=[N+](CC)Cc3cccc(S(=O)(=O)[O-])c3)C=C2)c2ccc(O)cc2S(=O)(=O)[O-])c1.[Na+].[Na+]", "cell-cell fusion (z-score)": "inactive: 2.8"},
      {"smiles": "Cl.c1ccc2c(c1)CCCC2C1=NCCN1", "note": "(centres undefined) [Tetrahydrozoline hydrochloride]", "cell-cell fusion (z-score)": "inactive: 1.77"},
      {"smiles": "Cl.c1ccc2c(c1)CCCC2C1=NCCN1", "note": "(centres undefined) [Tetrahydrozoline HCl]", "cell-cell fusion (z-score)": "inactive: 2.62"},
      {"smiles": "CCOC(=O)C1=C(C)NC(C)=C(C(=O)OCC)C1c1c(F)c(F)c(F)c(F)c1F", "note": "[Nemadipine-A]", "cell-cell fusion (z-score)": "inactive: 2.81"},
      {"smiles": "O=C(CCSCc1ccco1)NNC(=O)N1Cc2ccccc2Oc2ccc(Cl)cc21", "cell-cell fusion (z-score)": "inactive: 1.64"},
      {"smiles": "CN(CCC(Oc1ccc(C(=O)c2nccs2)cc1)c1ccc(Cl)cc1)CC(=O)O.Cl.O", "note": "(centres undefined)", "cell-cell fusion (z-score)": "inactive: 2.25"},
      {"smiles": "O=C(NC[C@H]1CN(c2ccc(N3CCOCC3=O)cc2)C(=O)O1)c1ccc(Cl)s1", "note": "[Rivaroxaban]", "cell-cell fusion (z-score)": "inactive: 0.193"},
      {"smiles": "COc1cc2nccc(Oc3ccc(NC(=O)NC4CC4)c(Cl)c3)c2cc1C(N)=O", "note": "[Lenvatinib (E7080)]", "cell-cell fusion (z-score)": "inactive: -1.47"},
      {"smiles": "COc1cc2nccc(Oc3ccc(NC(=O)NC4CC4)c(Cl)c3)c2cc1C(N)=O", "note": "[E7080 (Lenvatinib)]", "cell-cell fusion (z-score)": "inactive: 2.61"},
      {"smiles": "Nc1ccc(S(=O)(=O)Nc2ccccn2)cc1", "note": "[Sulfapyridine]", "cell-cell fusion (z-score)": "inactive: 1.94"},
      {"smiles": "C#C[C@]1(OC(C)=O)CC[C@H]2[C@@H]3CCC4=C[C@@H](OC(C)=O)CC[C@@H]4[C@H]3CC[C@@]21C", "note": "[Ethynodiol diacetate]", "cell-cell fusion (z-score)": "inactive: 0.111"},
      {"smiles": "CN(C[C@@H]1COCCO1)S(=O)(=O)Nc1ccc2ccc3ncc(-c4cnn(C)c4)cc3c(=O)c2c1", "cell-cell fusion (z-score)": "inactive: -2.15"},
      {"smiles": "CC(C)[C@H]1CC[C@H](C(=O)N[C@H](Cc2ccccc2)C(=O)O)CC1", "note": "[Nateglinide]", "cell-cell fusion (z-score)": "inactive: 2.13"},
      {"smiles": "CC(O)(CS(=O)(=O)c1ccc(F)cc1)C(=O)Nc1ccc(C#N)c(C(F)(F)F)c1", "note": "(centres undefined) [Bicalutamide]", "cell-cell fusion (z-score)": "inactive: 3.52"},
      {"smiles": "Nc1nc2ccc(Cl)cc2n2c(-c3ccccc3)nnc12", "cell-cell fusion (z-score)": "inactive: 1.64"},
      {"smiles": "CC(=O)O[C@H]1CC[C@@]2(C)C(=CCC3C2CC[C@@]2(C)C3C[C@H]3O[C@]32C(C)=O)C1", "note": "(some centres undefined)", "cell-cell fusion (z-score)": "inactive: 0.803"},
      {"smiles": "CCCN(CCC)S(=O)(=O)c1ccc(C(=O)O)cc1", "cell-cell fusion (z-score)": "inactive: -0.54"},
      {"smiles": "COC(=O)[C@H](CCCNC(=N)N)NS(=O)(=O)c1ccc(C)cc1", "cell-cell fusion (z-score)": "inactive: 2.73"},
      {"smiles": "Cl.Cl.N=C(NCCCCCCNC(=N)NC(=N)Nc1ccc(Cl)cc1)NC(=N)Nc1ccc(Cl)cc1", "cell-cell fusion (z-score)": "active: -7.83"},
      {"smiles": "C[C@](N)(Cc1ccc(O)c(O)c1)C(=O)O", "cell-cell fusion (z-score)": "inactive: 0.967"},
      {"smiles": "Nc1ccc(C(=O)Nc2cccc(-c3nc(N4CCOCC4)c4oc5ncccc5c4n3)c2)cn1", "cell-cell fusion (z-score)": "inactive: 1.34"},
      {"smiles": "Cc1ccc(Cl)c(Nc2ccccc2C(=O)[O-])c1Cl.[Na+]", "note": "[Meclofenamate Sodium]", "cell-cell fusion (z-score)": "inactive: 2.6"},
      {"smiles": "CC[C@H]1OC(=O)[C@H](C)[C@@H](O[C@H]2C[C@@](C)(OC)[C@@H](O)[C@H](C)O2)[C@H](C)[C@@H](O[C@@H]2O[C@H](C)C[C@H](N(C)C)[C@H]2O)[C@](C)(O)C[C@@H](C)CN(C)[C@H](C)[C@@H](O)[C@]1(C)O.O.O", "note": "[Azithromycin]", "cell-cell fusion (z-score)": "inactive: 2.26"},
      {"smiles": "CC(O)(P(=O)([O-])O)P(=O)([O-])O.[Na+].[Na+]", "note": "[Sodium etidronate]", "cell-cell fusion (z-score)": "inactive: 2.71"},
      {"smiles": "O=C1CCC(N2C(=O)c3ccccc3C2=O)C(=O)N1", "note": "(racemic) [(±)-Thalidomide]", "cell-cell fusion (z-score)": "inactive: 1.96"},
      {"smiles": "CC(C)OC(=O)C(C)(C)Oc1ccc(C(=O)c2ccc(Cl)cc2)cc1", "note": "[Fenofibrate]", "cell-cell fusion (z-score)": "inactive: 4.01"},
      {"smiles": "Cl.N#Cc1ccc2[nH]cc(CCCCN3CCN(c4ccc5oc(C(N)=O)cc5c4)CC3)c2c1", "note": "[Vilazodone HCl]", "cell-cell fusion (z-score)": "inactive: 1.22"},
      {"smiles": "NC(CCCP(=O)(O)O)C(=O)O", "note": "(racemic) [(±)-2-Amino-5-phosphonopentanoic acid]", "cell-cell fusion (z-score)": "inactive: 1.13"},
      {"smiles": "Nc1ccc(S(N)(=O)=O)cc1", "note": "[Sulfanilamide]", "cell-cell fusion (z-score)": "inactive: 3.41"},
      {"smiles": "CC(C)NC[C@H](O)COc1cccc2[nH]ccc12", "note": "[S(-)-Pindolol]", "cell-cell fusion (z-score)": "inactive: 2.31"},
      {"smiles": "COc1cc(Nc2ncc(F)c(Nc3ccc4c(n3)NC(=O)C(C)(C)O4)n2)cc(OC)c1OC", "note": "[R406 (free base)]", "cell-cell fusion (z-score)": "inactive: 0.65"},
      {"smiles": "Nc1ccc(C(=O)O)c(O)c1", "note": "[Aminopar]", "cell-cell fusion (z-score)": "inactive: 3.85"},
      {"smiles": "COc1c(O)cccc1O", "cell-cell fusion (z-score)": "inactive: 2.11"},
      {"smiles": "C[C@H]1CC2C3CCC4=CC(=O)C=C[C@]4(C)[C@@]3(F)[C@@H](O)C[C@]2(C)[C@@]1(O)C(=O)COP(=O)([O-])[O-].[Na+].[Na+]", "note": "(some centres undefined)", "cell-cell fusion (z-score)": "inactive: 3.26"},
      {"smiles": "N=C(NCCC[C@H](N)C(=O)O)N[N+](=O)[O-]", "cell-cell fusion (z-score)": "inactive: 1.83"},
      {"smiles": "C[N+](C)(C)CCCCCCCCCC[N+](C)(C)C.[Br-].[Br-]", "note": "[Decamethonium bromide]", "cell-cell fusion (z-score)": "inactive: 2.08"},
      {"smiles": "COc1ccc([C@@H]2Sc3ccccc3N(CCN(C)C)C(=O)[C@@H]2OC(C)=O)cc1.Cl", "note": "[Diltiazem hydrochloride]", "cell-cell fusion (z-score)": "inactive: 0.748"},
      {"smiles": "Cl.NCC(=O)c1ccccc1", "cell-cell fusion (z-score)": "inactive: 1.15"},
      {"smiles": "CC1OC1P(=O)([O-])[O-].[Na+].[Na+]", "note": "(centres undefined) [Phosphomycin disodium]", "cell-cell fusion (z-score)": "inactive: 1.18"},
      {"smiles": "CCCCCCCCCCC[C@@H](C[C@@H]1OC(=O)[C@H]1CCCCCC)OC(=O)[C@H](CC(C)C)NC=O", "note": "[Orlistat]", "cell-cell fusion (z-score)": "inactive: 3.44"},
      {"smiles": "Cl.Cl.Fc1ccc(C(OCCN2CCN(CCCc3ccccc3)CC2)c2ccc(F)cc2)cc1", "cell-cell fusion (z-score)": "inactive: -2.75"},
      {"smiles": "CN[C@@H](Cc1c[nH]c2ccccc12)C(=O)O", "cell-cell fusion (z-score)": "inactive: 1.72"},
      {"smiles": "CC(=O)OCC(CCn1cnc2cnc(N)nc21)COC(C)=O", "note": "[Famciclovir]", "cell-cell fusion (z-score)": "inactive: 1.42"},
      {"smiles": "CN1CCc2cccc3c2C1Cc1ccc(O)c(O)c1-3.Cl", "note": "(centres undefined)", "cell-cell fusion (z-score)": "-3.46 ± 2.3"},
      {"smiles": "O=C([O-])c1cc(=O)c2c(OCC(O)COc3cccc4oc(C(=O)[O-])cc(=O)c34)cccc2o1.[Na+].[Na+]", "note": "[Sodium cromoglycate]", "cell-cell fusion (z-score)": "inactive: 1.46"},
      {"smiles": "O=C1C(SCCO)=C(SCCO)C(=O)c2ccccc21", "cell-cell fusion (z-score)": "active: -7.1"},
      {"smiles": "CCOc1nc2cccc(C(=O)O)c2n1Cc1ccc(-c2ccccc2-c2nnn[nH]2)cc1", "cell-cell fusion (z-score)": "inactive: 1.64"},
      {"smiles": "COc1c(C)c2c(c(O)c1C/C=C(\\C)CCC(=O)O)C(=O)OC2", "note": "[Mycophenolic (Mycophenolate)]", "cell-cell fusion (z-score)": "inactive: 1.85"},
      {"smiles": "COc1ccc2cc([C@H](C)C(=O)[O-])ccc2c1.[Na+]", "note": "[Naproxen sodium]", "cell-cell fusion (z-score)": "inactive: 1.85"},
      {"smiles": "COc1cc(O)c(C(C)=O)c(O)c1", "cell-cell fusion (z-score)": "inactive: 2.07"},
      {"smiles": "CO/N=C(\\C(=O)NC1C(=O)N2C(C(=O)OCOC(=O)C(C)(C)C)=C(/C=C\\c3scnc3C)CSC12)c1csc(N)n1", "note": "(centres undefined)", "cell-cell fusion (z-score)": "inactive: 2.13"},
      {"smiles": "COc1ccc2cc([C@H](C)C(=O)O)ccc2c1", "cell-cell fusion (z-score)": "inactive: -0.318"},
      {"smiles": "OCc1ccc(-c2nn(Cc3ccccc3)c3ccccc23)o1", "cell-cell fusion (z-score)": "inactive: 1.58"},
      {"smiles": "CC1=CC2C(CC1=O)C(C)=CCC2C(C)C", "note": "(centres undefined)", "cell-cell fusion (z-score)": "inactive: 2.2"},
      {"smiles": "CC(C)CC(NP(=O)([O-])O[C@@H]1O[C@@H](C)[C@H](O)[C@@H](O)[C@H]1O)C(=O)NC(Cc1c[nH]c2ccccc12)C(=O)[O-].[Na+].[Na+]", "note": "(some centres undefined) [Phosphoramidon disodium]", "cell-cell fusion (z-score)": "active: -5.72"},
      {"smiles": "CSc1nc2cc(Cl)c(Oc3cccc(Cl)c3Cl)cc2[nH]1", "cell-cell fusion (z-score)": "inactive: 2.46"},
      {"smiles": "CNC(=C[N+](=O)[O-])NCCSCc1csc(CN(C)C)n1", "note": "[Nizatidine]", "cell-cell fusion (z-score)": "inactive: 2.62"},
      {"smiles": "O=C(NCc1ccccc1)c1csc(Nc2ccncn2)n1", "note": "[Thiazovivin]", "cell-cell fusion (z-score)": "inactive: 1.23"},
      {"smiles": "O=c1cc(-c2cccc(O)c2)oc2cc(O)ccc12", "cell-cell fusion (z-score)": "inactive: 1.74"},
      {"smiles": "CO/N=C(\\C(=O)N[C@@H]1C(=O)N2C(C(=O)O)=C(C[n+]3cccc4c3CCC4)CS[C@H]12)c1csc(N)n1.O=S(=O)([O-])O", "note": "[Cefpirome sulfate]", "cell-cell fusion (z-score)": "inactive: 1.49"},
      {"smiles": "COc1ccc(-c2coc3cc(O)ccc3c2=O)cc1", "cell-cell fusion (z-score)": "inactive: 2.4"},
      {"smiles": "O=C1c2ccccc2C(=O)c2c(NCCc3ccc(O)cc3)ccc(NCCc3ccc(O)cc3)c21", "cell-cell fusion (z-score)": "active: -4.15"},
      {"smiles": "O=c1cc(-c2ccc(O)cc2)oc2cc(O)ccc12", "cell-cell fusion (z-score)": "inactive: 0.552"},
      {"smiles": "CN(C)c1nc(N)c(C(=O)N=C(N)N)nc1Cl.Cl", "note": "[5-(N,N-Dimethyl)amiloride hydrochloride]", "cell-cell fusion (z-score)": "inactive: 1.45"},
      {"smiles": "CC1(C)S[C@@H]2[C@H](NC(=O)[C@H](N)c3ccccc3)C(=O)N2[C@H]1C(=O)[O-].[Na+]", "note": "[Ampicillin sodium]", "cell-cell fusion (z-score)": "inactive: 1"}
    ]}
  ]
}
